# Assay results as given in PubChem BioAssay AID504444 (National Center for Advancing Translational Sciences (NCATS), 2011).
# The campaign covered roughly 360,000 compounds. About 7,500 (2.1%) were called active. The inconclusive results got no clear call from the source; some entries with a clear call stand among them for comparison. Calls follow the shape of the dose curve; as a rule, active = well fitted inhibition curve with a large enough effect; inconclusive = small, poorly fitted or top-dose-only effect, or effect the other way; inactive = flat fitted curve, though single readings scatter. Potencies of inconclusive entries are doubtful fits and often do not repeat.
# Assay: Nrf2 qHTS screen for inhibitors; also: nearly all actives have a fitted effect of over 60% in size
# Conditions: A549 ARE-Fluc reporter, luciferase luminescence, 18-24 h; activity change, negative = inhibition: at 46 µM (top of the series)
# Outline: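 Quantitative HTS in A549 cells stably bearing an antioxidant response element-firefly luciferase construct. Inhibition of Nrf2-driven transcription was scored by luminescence after 18-24 h of compound exposure at 37 °C.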
# % is scaled to controls: 0 for no effect and ±100 for the full control effect; potency is read from the fitted curve at half-maximal effect.
Structure (SMILES),Potency,"activity change, negative = inhibition"
CCCCn1c(=O)[nH]c(=O)c2c(C(=O)OCC)cc(-c3cccs3)nc21,"inconclusive: 10.3 µM [falling, partial curve, poor fit]",
COc1ccc(OCCNc2cc(N3CCOCC3)ccc2[N+](=O)[O-])cc1,"inconclusive: 9.2 µM [falling, partial curve, poor fit]",
CC1CCN(C(=O)COC(=O)c2cccs2)CC1,"inconclusive: 6.51 µM [activator, partial curve]",
CCn1c(=S)sc2c(=O)n(CC(=O)NC(C)CCc3ccccc3)c(C)nc21 (stereo not given),"inconclusive: 29.1 µM [falling, single point]",
O=C(CSc1nnc(-c2ccco2)n1Cc1ccco1)Nc1ccccc1,,inactive: -18.9%
COC(=O)[C@@]1(Cc2ccccc2)[C@H]2C(=O)N(Cc3ccccc3)C(=O)[C@H]2[C@H]2CN=C(SCC(=O)c3ccccc3)N21,"inconclusive: 16.4 µM [activator, partial curve]",
CCOC(=O)c1ccc(NC(=O)CCc2nc(-c3ccccc3)no2)cc1,"inconclusive: 29.1 µM [falling, single point]",
Cc1ccsc1C(=O)OCC(=O)c1ccc[nH]1,"inconclusive: 9.2 µM [activator, partial curve, poor fit]",
COc1ccc(C(=O)Nc2ccc3ccccc3n2)cc1OC,"inconclusive: 8.2 µM [activator, partial curve]",
Fc1cccc(F)c1-n1c(CN2CCCCC2)csc1=S,"inconclusive: 29.1 µM [activator, single point]",
Cc1[nH]c2ccccc2c1C(=O)CN1C(=O)NC(C)(c2ccc(Cl)cc2Cl)C1=O (stereo not given),"inconclusive: 23.1 µM [falling, single point]",
O=C(COc1ccc(Br)cc1)Nc1ccc(-c2nnc(-c3ccco3)o2)cc1,"inconclusive: 0.58 µM [activator, full curve, poor fit]",
Cc1cc(C)c(C(=O)Nc2ccc(S(=O)(=O)Nc3ccccn3)cc2)c(C)c1,"inconclusive: 10.3 µM [falling, partial curve, poor fit]",
Cc1nc2ncccn2c1-c1csc(NCc2ccco2)n1,"inconclusive: 8.2 µM [falling, partial curve]",
Nc1sc(-c2ccccc2)cc1C(=O)N/N=C/c1ccc(Cl)cc1,,inactive: 16.5%
CCn1c(=N)n(CC(=O)c2ccc(Cl)c(Cl)c2)c2ccccc21,"inconclusive: 13 µM [activator, partial curve]",
O=C(O)c1ccc(Cn2c(SCc3ccc(F)cc3)nc3ccncc32)cc1,,inactive: 5.55%
CCN(CC)S(=O)(=O)c1ccc(OC(C)C)c(NC(=O)c2c3c(nc4ccccc24)CCN(Cc2ccccc2)C3)c1,,inactive: -25.3%
COc1ccc(NS(=O)(=O)c2cc(NC(=O)C3CCCCC3)ccc2N2CCOCC2)cc1,"inconclusive: 8.2 µM [falling, partial curve]",
Cc1cc(NC(=O)CS(=O)(=O)c2cn(Cc3cccc(F)c3)c3ccccc23)no1,active: 23.1 µM,
CCNc1nc(Oc2ccc(OC)cc2)cc(C(F)(F)F)n1,"inconclusive: 14.6 µM [activator, partial curve]",
COc1ccc(-c2cc3ccc(OCc4nn[nH]n4)cc3oc2=O)cc1,"inconclusive: 25.9 µM [falling, partial curve, poor fit]",

Structure (SMILES),Potency,"activity change, negative = inhibition"
O=C(NCC(c1cccs1)N1CCOCC1)c1cccc(S(=O)(=O)Nc2ccc(F)cc2)c1 (stereo not given),"inconclusive: 29.1 µM [falling, single point]",
CCc1ccc(NS(=O)(=O)c2[nH]ncc2C(=O)OC)cc1,,inactive: -4.35%
Cc1cc(-c2nnc3n2N=C(c2ccccc2)CS3)n[nH]1,"inconclusive: 16.4 µM [falling, single point]",
COc1ccc(C(C)(C)C)cc1NC(=O)CNc1cccc2ccccc12,"inconclusive: 29.1 µM [falling, single point]",
c1ccc(-c2nn3c(Cn4nnc5ccccc54)nnc3s2)cc1,,inactive: -2.48%
COc1ccc(N2C(=O)CSC23C(=O)N(Cc2cccc(F)c2)c2ccccc23)cc1Cl (stereo not given),"inconclusive: 29.1 µM [falling, single point]",
CCN(CC)S(=O)(=O)c1ccc(N2CCN(S(=O)(=O)c3ccc4c(c3)OCCO4)CC2)nc1,"inconclusive: 16.4 µM [falling, partial curve]",
CCCS(=O)(=O)c1c(S(=O)(=O)CCC)c2c(N)cccn2c1C(=O)c1ccc(OC)cc1,"inconclusive: 18.4 µM [falling, partial curve, poor fit]",
O=S(=O)(c1ccc2nc(N3CCN(c4ccccc4F)CC3)ccc2c1)N1CCCCC1,"inconclusive: 25.9 µM [activator, single point]",
Cc1ccccc1-c1ccc(=O)n(CC(=O)Nc2ccc(C(=O)N3CCCC3)cc2)n1,"inconclusive: 0.206 µM [falling, partial curve]",
Cc1cccc(N(C(=O)c2snc(C(N)=O)c2N)C(C(=O)NCC2CCCO2)c2c[nH]c3ccccc23)c1 (stereo not given),"inconclusive: 29.1 µM [falling, single point]",
COc1ccccc1C(=O)N1CCN(c2cccc(C(F)(F)F)c2)CC1,,inactive: -4.87%
Cc1ccc(OCC(=O)Nn2c(C)nc3ccccc3c2=O)c(C(C)C)c1,"inconclusive: 20.6 µM [falling, partial curve, poor fit]",
C=CCn1c(C)cc(C(=O)CN2NS(=O)(=O)c3ccccc3C2=O)c1C,"inconclusive: 4.11 µM [activator, full curve]",
Cn1c(/C=C/N(Cc2ccccc2)c2ccccc2)c([N+](=O)[O-])c(=O)n(C)c1=O,"inconclusive: 1.64 µM [falling, partial curve, poor fit]",
Cc1ccc(-n2nc(C)c3c(C)cc(=O)n(CC(=O)Nc4cccc(C)c4C)c32)cc1,"inconclusive: 29.1 µM [activator, single point]",
Fc1ccccc1CSc1nnc(-c2ccccc2)o1,"inconclusive: 1.84 µM [activator, full curve]",
COc1cc(C(=O)NCCOc2cccc3cccnc23)cc(OC)c1OC,"inconclusive: 2.06 µM [activator, partial curve]",
O=C(Nc1ccccc1C(=O)N/N=C/c1ccco1)c1ccc(F)cc1,,inactive: 3.31%
CCc1ccccc1Nc1nc(N)nc(CSCC(=O)c2cc(C)n(C)c2C)n1,"inconclusive: 14.6 µM [falling, partial curve, poor fit]",
CCn1c(=O)c(C(=O)Nc2ccccc2)c(O)c2ccccc21,,inactive: 22.2%
COc1cc(OC)cc(C(=O)O/N=C(\N)c2ccccn2)c1,"inconclusive: 20.6 µM [activator, partial curve, poor fit]",

# As entered above:
# `Cc1cc(C)c(C(=O)Nc2ccc(S(=O)(=O)Nc3ccccn3)cc2)c(C)c1` | Potency: inconclusive: 10.3 µM [falling, partial curve, poor fit]
# `Fc1cccc(F)c1-n1c(CN2CCCCC2)csc1=S` | Potency: inconclusive: 29.1 µM [activator, single point]
# `O=C(O)c1ccc(Cn2c(SCc3ccc(F)cc3)nc3ccncc32)cc1` | activity change, negative = inhibition: inactive: 5.55%

# (further entries)

Structure (SMILES),Potency,"activity change, negative = inhibition"
CCOC(=O)C(CCCOc1ccc(C(C)CC)cc1)C(=O)OCC (stereo not given),"inconclusive: 20.6 µM [falling, single point]",
Cc1ccc(-c2noc(-c3nnn(-c4cccc(C(F)(F)F)c4)c3N)n2)cc1,"inconclusive: 18.4 µM [activator, single point]",
CSc1ccccc1NC(=O)CSc1n[nH]c(C)c1[N+](=O)[O-],,inactive: 3.27%
COC1C/C(=N\O)C2OC(c3ccccc3)OCC2O1 (stereo not given),"inconclusive: 0.411 µM [activator, full curve, poor fit]",
COc1cc(C2C(C(=O)c3cc4ccccc4o3)=C(O)C(=O)N2c2cc(C)on2)cc(OC)c1OC (stereo not given),,inactive: -12.2%
Cc1nn(C)c2c1c(-c1ccccc1)cc(=O)n2CC(=O)NC(C)C,"inconclusive: 4.11 µM [falling, full curve, poor fit]",
Cc1ccc(/C=N/NC(=O)CSCc2ccc(Cl)cc2)cc1,"inconclusive: 0.411 µM [falling, full curve, poor fit]",
CC1(C)Cc2nc3oc4c(N(CCO)Cc5ccccc5)ncnc4c3cc2CO1,"inconclusive: 13 µM [falling, partial curve, poor fit]",
CC(C)(CO)NC(=O)c1ccc2c(c1)C(=O)c1ccccc1-2,"inconclusive: 16.4 µM [activator, single point]",
CCOc1ccc(-n2c(-c3ccc(Br)cc3)c[n+]3c2CCCCC3)cc1,"inconclusive: 6.51 µM [falling, partial curve]",
CCC(C)NC(=O)c1cc(-c2ccc3c(c2)OCO3)on1 (stereo not given),"inconclusive: 2.31 µM [activator, full curve]",
O=C(c1ccc(Cl)c(S(=O)(=O)N2CCCCCC2)c1)N1CCN(c2ccccn2)CC1,"inconclusive: 23.1 µM [falling, partial curve, poor fit]",
COc1ccc(/C=N/NC(=O)c2cc(-c3ccccc3OC)nc3ccccc23)cc1COC(C)=O,,inactive: 10.5%
C[C@@H](C(=O)N1CCN(C(=O)OC(C)(C)C)CC1)n1cc(CCC(=O)O)nn1,"inconclusive: 23.1 µM [falling, single point]",
CCOC(=O)C1CCN(CC(=O)c2c(C)[nH]c3ccccc23)CC1,,inactive: 4.01%
C/C(=N\Nc1ccc(F)cc1F)c1ccccc1O,"inconclusive: 23.1 µM [activator, single point]",
CN(C)c1cccc(NC(=O)CCc2ccccc2)c1,"inconclusive: 16.4 µM [activator, single point]",
O=C(NC1CCCC1)C(c1ccc(F)cc1)N(C(=O)c1csnn1)C1CC1 (stereo not given),,inactive: -16.2%
COc1ccc2sc(-c3ccc(N(C)C)cc3)c(C#CC(C)(C)O)c2c1,,inactive: 5.73%
Clc1ccc(-c2cc(-c3ccccn3)on2)c(Cl)c1,"inconclusive: 0.0651 µM [activator, full curve, poor fit]",
O=C(COc1ccccc1)Nc1ccc2c(c1)nc1n2CCSC1,"inconclusive: 25.9 µM [activator, single point]",
